Assay [1] addresses YAP (human (endogenous in AGS)) (UniProt P46937). The assay is described as follows: co-IP; endogenous proteins in AGS cell lysate (Co-IP cell lysis buffer with protease inhibitors); precipitated overnight at 4 °C with anti-YAP or anti-USP12 antibody or IgG and protein A/G agarose; precipitates examined by immunoblotting. (In general: In western blotting, separated proteins are transferred to a membrane and probed.)

Chains of the proteins cited; added tags and fusions are not shown.
UniProt P46937: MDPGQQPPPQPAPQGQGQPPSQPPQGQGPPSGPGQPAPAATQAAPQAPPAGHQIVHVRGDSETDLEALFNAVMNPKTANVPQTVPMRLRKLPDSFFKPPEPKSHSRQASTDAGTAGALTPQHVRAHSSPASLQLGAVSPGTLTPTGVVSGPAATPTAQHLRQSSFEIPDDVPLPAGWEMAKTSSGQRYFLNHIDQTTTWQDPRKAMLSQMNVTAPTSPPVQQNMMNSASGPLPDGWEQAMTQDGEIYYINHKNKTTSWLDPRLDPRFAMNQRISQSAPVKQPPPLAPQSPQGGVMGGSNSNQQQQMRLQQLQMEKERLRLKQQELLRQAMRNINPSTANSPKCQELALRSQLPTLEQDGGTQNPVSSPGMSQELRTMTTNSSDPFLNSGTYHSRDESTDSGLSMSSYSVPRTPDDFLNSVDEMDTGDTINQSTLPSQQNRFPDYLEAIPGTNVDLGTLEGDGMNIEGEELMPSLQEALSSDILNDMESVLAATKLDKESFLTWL
UniProt O75317: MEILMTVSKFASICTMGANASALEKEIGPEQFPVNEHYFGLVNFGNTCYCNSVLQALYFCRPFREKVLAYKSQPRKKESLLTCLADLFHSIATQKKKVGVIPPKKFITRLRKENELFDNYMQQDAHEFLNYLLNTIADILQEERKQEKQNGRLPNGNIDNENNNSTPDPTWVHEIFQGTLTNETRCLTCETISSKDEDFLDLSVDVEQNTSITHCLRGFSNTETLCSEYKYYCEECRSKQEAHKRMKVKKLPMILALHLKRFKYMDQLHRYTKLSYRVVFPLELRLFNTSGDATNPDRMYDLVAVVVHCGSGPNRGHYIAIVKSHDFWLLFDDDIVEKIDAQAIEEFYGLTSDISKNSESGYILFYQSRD

The target of assay [2] is USP12 (Ubiquitin Specific Peptidase 12) (human (endogenous in AGS)) (UniProt O75317). The description is as above.

These are yes or no findings as the source states them, for the method shown. In cells and extracts the contact can be indirect. Some results given as binding are weak or reduced against the parent protein; the word gives no strength.

For “USP12 (Ubiquitin Specific Peptidase 12) (from UniProt O75317 1-370) (enzyme)”, the binding result in assay [1] is listed as “binds”.

Take YAP (from UniProt P46937 1-504): the binding result in assay [2] is recorded as “binds”.

(Values after publication PMC11009230.)
